Source: PubChem BioAssay AID1671190 (National Center for Advancing Translational Sciences (NCATS), 2021)
The whole screen tested about 580,000 compounds, of which about 6,100 (1.1%) were called active. Inconclusive means that the source gave no clear call. Such entries were picked first, then a sample of the others. The call rests on the fitted dose curve; in most records, active means well fitted inhibition curve with a large enough effect; inconclusive means small, poorly fitted or top-dose-only effect, or another doubt; inactive means no such curve, though single readings can be large or run the other way. Potencies of inconclusive entries are doubtful fits and often do not repeat.
On the % scale 0 is the no-effect control and ±100 the full control effect; potency means the concentration at half of the fitted maximal effect.

Chains of the proteins cited; added tags and fusions are not shown. Lines headed by an entry give the natural chain unless they say otherwise; changes in a name come on top.
UniProt P18054: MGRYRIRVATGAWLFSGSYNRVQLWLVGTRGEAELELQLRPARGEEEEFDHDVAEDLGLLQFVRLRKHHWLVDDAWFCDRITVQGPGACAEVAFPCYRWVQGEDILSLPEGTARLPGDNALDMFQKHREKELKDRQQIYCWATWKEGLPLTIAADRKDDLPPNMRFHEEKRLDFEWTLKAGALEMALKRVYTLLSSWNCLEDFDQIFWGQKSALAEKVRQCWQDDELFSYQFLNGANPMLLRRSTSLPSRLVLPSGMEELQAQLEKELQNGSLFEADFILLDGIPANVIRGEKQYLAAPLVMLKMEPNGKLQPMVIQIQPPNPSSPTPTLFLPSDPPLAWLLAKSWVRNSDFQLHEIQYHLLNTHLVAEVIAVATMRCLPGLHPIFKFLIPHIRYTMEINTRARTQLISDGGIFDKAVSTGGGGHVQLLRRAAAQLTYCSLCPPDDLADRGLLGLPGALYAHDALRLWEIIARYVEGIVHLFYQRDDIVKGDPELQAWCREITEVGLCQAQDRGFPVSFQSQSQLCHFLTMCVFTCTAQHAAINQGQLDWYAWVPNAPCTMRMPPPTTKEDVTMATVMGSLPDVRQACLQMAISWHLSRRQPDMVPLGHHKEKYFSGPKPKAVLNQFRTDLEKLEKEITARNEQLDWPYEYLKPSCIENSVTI

These molecules were tested against Polyunsaturated fatty acid lipoxygenase ALOX12 (Homo sapiens) (UniProt P18054) (assay: Primary qHTS assay for inhibitors of human arachidonate 12S-lipoxygenase (ALOX12): Round 2). Conditions: purified 12hLO, xylenol orange hydroperoxide absorbance; activity change, negative = inhibition: at 108 µM (top of the series) unless noted.
Method in brief: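 Hydroperoxide product was detected by ferrous iron/xylenol orange as the 573 to 405 nm absorbance ratio. Arachidonic acid at 40 uM (final) was turned over for 30 min at room temperature by 150 nM human 12hLO, pH 7.0 Hepes buffer, after 15 min compound preincubation.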
With `COc1cc(NC(=O)Cn2nc3ccc(SC4CCCCC4)nn3c2=O)cc(OC)c1OC` the Potency was “inactive”.
`Cc1ccc(S(=O)(=O)N2C[C@@H]3OCC(=O)N(Cc4ccc(OC(F)(F)F)cc4)[C@@H]3C2)cc1` was tested, and the Potency was inconclusive: 20 µM [inhibitor, full curve].
For `COc1ccc(NC(=O)c2cc(C3CCCCN3C(=O)c3ccc(Cl)cc3)on2)c(C)c1` (stereo not given), the Potency was inconclusive: 100 µM [inhibitor, single point].
With `CSCCC(NC(=O)COc1ccccc1)C(=O)N1CCCC(C(F)(F)F)C1` (stereo not given) the Potency was inconclusive: 89.1 µM [inhibitor, single point].
With `O=C1CS(=O)C2(CCN(S(=O)(=O)Cc3ccccc3F)CC2)N1CC1CC1` (stereo not given) the Potency was “inactive”.
`CCN1C(=O)S/C(=C\c2ccc(N3CCOCC3)cc2C)C1=O` was tested, and the Potency was “inactive”.
For `Cc1ccc(-c2csc(/C(C#N)=C/Nc3ccc4c(c3)OCCO4)n2)cc1`, the Potency was “inactive”.
In the case of `CCC(C)c1ccccc1NC(=O)c1ccc(SC)cc1OC` (stereo not given), the Potency is reported as inconclusive: 44.7 µM [inhibitor, single point].
With `N#Cc1c(NC(=O)CN2CCN(C(=O)c3ccco3)CC2)sc2c1CCCCC2` the Potency was inconclusive: 2.51 µM [inhibitor, full curve, poor fit].
With `CO/N=C(\c1nonc1N)N1CCN(c2ccc(Cl)cc2[N+](=O)[O-])CC1` the Potency was “inactive”.
`COc1ccc(CC(=S)N2CCOCC2)cc1` was tested, and the Potency was inconclusive: 44.7 µM [inhibitor, partial curve, poor fit].
In the case of `CCc1c(C)nc2c(-c3ccccc3OC)c(C)[nH]n2c1=O`, the Potency is reported as inconclusive: 35.5 µM [inhibitor, partial curve, poor fit].
`CCn1c(-c2cc(-c3cccc(OC)c3)nc3ccccc23)n[nH]c1=S` was tested, and the Potency was inconclusive: 35.5 µM [inhibitor, full curve, poor fit].
`CCn1c(SC(=O)NC2CCCCC2)nnc1-c1cccs1` was tested, and the Potency was inconclusive: 50.1 µM [inhibitor, partial curve, poor fit].
`COCCN1C(=O)c2cccn2CC1CNS(=O)(=O)Cc1ccccc1` (stereo not given) was tested, and the Potency was inconclusive: 7.08 µM [inhibitor, full curve].
In the case of `Cc1ccc(-n2c(=O)c3sccc3n(CC(=O)N3CCCCC3C)c2=O)cc1C` (stereo not given), the Potency is reported as inconclusive: 28.2 µM [inhibitor, partial curve, poor fit].
`CCn1ccnc1CN(C)Cc1cn(C)nc1-c1ccccc1F` was tested, and the Potency was “inactive”.
In the case of `O=C(Cc1ccc(Cl)cc1Cl)N1CCN(c2ccccc2O)CC1`, the Potency is reported as active: 39.8 µM.
`CSc1ccccc1C(=O)Nc1ccccc1C` was tested, and the Potency was “inactive”.
In the case of `CSc1ccccc1NC(=O)Nc1ccc(F)c(Cl)c1`, the Potency is reported as inconclusive: 35.5 µM [inhibitor, partial curve, poor fit].
For `Cc1ccc(C)c2c1[nH]c1ccc([N+](=O)[O-])cc12`, the Potency was inconclusive: 112 µM [inhibitor, single point].
With `Cc1cc(NC(=O)CN2C(=O)S/C(=C\c3ccccc3)C2=O)no1` the Potency was “inactive”.
With `Cc1ccc(C)c(N2CC(c3nc4ccccc4[nH]3)CC2=O)c1` (stereo not given) the Potency was “inactive”.
For `O=C(NC(=S)Nc1ccccc1Cl)C1CC1`, the Potency was “inactive”.
`COc1cc2ccccc2cc1C(=O)N1CCCC(C(F)(F)F)C1` (stereo not given) was tested, and the Potency was “inactive”.
`Cc1nc2ncnn2c(C)c1CCC(=O)Nc1cccc(S(=O)(=O)N2CCCC2)c1` was tested, and the Potency was “inactive”.
With `CC(C)CCNC(=O)CSc1nc2ccsc2c(=O)n1Cc1ccccc1` the Potency was inconclusive: 28.2 µM [inhibitor, partial curve].
In the case of `O=C(C[C@@H]1O[C@H](CNCc2ccc(F)cc2)[C@@H](O)[C@H]1O)NCc1ccc(F)cc1`, the Potency is reported as inconclusive: 39.8 µM [inhibitor, partial curve].
For `O=C(c1ccc(F)c(F)c1)N1CCC2(CC1)NC(=O)N(Cc1ccc(F)cc1)C2=O`, the Potency was inconclusive: 15.8 µM [inhibitor, full curve].
`CS(=O)(=O)c1ccc2nc(NC(=O)Cc3ccc(Cl)cc3)sc2c1` was tested, and the Potency was inconclusive: 56.2 µM [inhibitor, partial curve, poor fit].
`CN1C(=O)Cc2cc(S(=O)(=O)NCc3ccc(Cl)cc3)ccc21` was tested, and the Potency was inconclusive: 63.1 µM [inhibitor, partial curve, poor fit].
In the case of `CC(C)[C@H](NC(=O)c1ccco1)C(=O)Nc1ccc(OC(F)F)cc1`, the Potency is reported as inconclusive: 79.4 µM [inhibitor, single point].
In the case of `COc1ccc(C=C2CS(=O)(=O)CC(=Cc3ccc(OC)cc3)C2=O)cc1`, the Potency is reported as inconclusive: 56.2 µM [inhibitor, partial curve, poor fit].
For `O=C(NCc1ccccc1)C(=O)NCC1OCCN1S(=O)(=O)c1ccc2c(c1)OCCO2` (stereo not given), the Potency was “inactive”.
For `COc1cc(OC)cc(C(=O)NCCSCc2ccc(Cl)cc2)c1`, the Potency was inconclusive: 44.7 µM [inhibitor, partial curve, poor fit].
With `COc1ccc(N2CCN(CCCNC(=O)c3cnn(-c4ccc(C)cc4)c3-n3cccc3)CC2)cc1` the activity change, negative = inhibition was inconclusive: -44.4% [inhibitor].
With `Cc1cc(C(=O)COc2ncnc3ccccc23)c(C)n1CC(F)(F)F` the Potency was “inactive”.
`CS(=O)(=O)NC(=O)c1ccc(Cl)cc1F` was tested, and the Potency was inconclusive: 2.82 µM [inhibitor, full curve, poor fit].
In the case of `CC(C)C[C@@H]1CN(CCCC[C@H]2CNC(=O)C(=O)N2CCC2CCCCC2)C(=O)C(=O)N1Cc1ccccc1`, the Potency is reported as inconclusive: 70.8 µM [inhibitor, single point].
`CCC(NC(=O)C1CCCN(c2cnc3nccnc3c2)C1)c1ccc(OC)cc1` (stereo not given) was tested, and the Potency was inconclusive: 44.7 µM [inhibitor, partial curve, poor fit].
With `CC[n+]1c(C)sc2c3ccsc3ccc21` the Potency was inconclusive: 28.2 µM [inhibitor, partial curve].
With `CCCOc1ccc(C(C)NC(=O)c2ccc(C)nc2)cc1OC` (stereo not given) the Potency was “inactive”.
For `C/C(=N\NC(=S)NCc1ccccc1)c1cccc(Br)c1`, the Potency was active: 31.6 µM.
With `CC1CCN(c2ccc(NC(=O)Cc3ccccc3)cc2)CC1` the Potency was “inactive”.
`C[C@@H](NC(=O)C1CC1)c1c(-c2ccc(Cl)cc2)noc1C(=O)O` was tested, and the Potency was inconclusive: 20 µM [inhibitor, full curve, poor fit].
